Data as given in PubChem BioAssay AID743121 (NCATS, 2013).

Aim: 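Knock-downs that sensitise breast cancer cells to camptothecin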 (primary screen)
Cell system: MDA-MB-231 cells, a human breast cancer line
Reagents: single siRNA against human genes, 20 nM siRNA (0.8 pmol per well)
Timing: 120 h (drug added 48 h after transfection, read 72 h later)
Conditions: camptothecin 20 nM (about EC30) for 72 h; vehicle 0.1% DMSO in parallel plates
Detection: 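CellTiter-Glo ATP signal, scaled to control siRNA as percent viability; sensitisation given as log2 of untreated divided by camptothecin-treated viability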
Direction: log2 vehicle/camptothecin viability: higher = stronger sensitisation to camptothecin; viability with camptothecin and viability without drug: higher = more viable cells
Call rule: 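Active genes have an RSA gene-level p-value below 0.001, computed from the ratios of their separate siRNAs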
Shown is a random part of about 26,000 deposited reagents. 167 of all reagents (0.63%) count as active. 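Calls are per gene from RSA p-values that are not deposited; an individual active-marked siRNA can sensitise only weakly.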 Unmarked entries are inactive. Reagents against one gene are numbered here.

gene | siRNA no. | log2 vehicle/camptothecin viability | viability with camptothecin (% of control) | viability without drug (% of control)
ADIPOQ (adiponectin, C1Q and collagen domain containing) | 1 | -0.312 | 35.1 | 28.2
ADIPOQ (adiponectin, C1Q and collagen domain containing) | 2 | -0.16 | 107 | 95.4
ADIPOQ (adiponectin, C1Q and collagen domain containing) | 3 | -0.417 | 69.6 | 52.1
ADIPOQ (adiponectin, C1Q and collagen domain containing) | 4 | -0.0213 | 100 | 98.5
PTGR3 (prostaglandin reductase 3) | 1 | 0.0115 | 90.3 | 91
PTGR3 (prostaglandin reductase 3) | 2 | -0.377 | 41.9 | 32.2
PTGR3 (prostaglandin reductase 3) | 3 | 0.265 | 57.7 | 69.4
PTGR3 (prostaglandin reductase 3) | 4 | -0.00502 | 54.6 | 54.4
RNF32 (ring finger protein 32) | 1 | -0.198 | 103 | 89.7
RNF32 (ring finger protein 32) | 2 | -0.188 | 118 | 104
RNF32 (ring finger protein 32) | 3 | -0.0675 | 51.7 | 49.3
RNF32 (ring finger protein 32) | 4 | -0.254 | 99.5 | 83.5
WARS1 (tryptophanyl-tRNA synthetase 1) | 1 | -0.0192 | 94.2 | 92.9
WARS1 (tryptophanyl-tRNA synthetase 1) | 2 | 0.0201 | 96.2 | 97.5
WARS1 (tryptophanyl-tRNA synthetase 1) | 3 | -0.465 | 56.5 | 40.9
WARS1 (tryptophanyl-tRNA synthetase 1) | 4 | -0.509 | 74.3 | 52.2
TAC3 (tachykinin precursor 3) | 1 | -0.0371 | 66.8 | 65.1
TAC3 (tachykinin precursor 3) | 2 | 0.526 | 65.5 | 94.4
TAC3 (tachykinin precursor 3) | 3 | -0.257 | 101 | 84.5
TAC3 (tachykinin precursor 3) | 4 | 0.915 | 26.5 | 50
EPHB6 (EPH receptor B6) | 1 | -0.668 | 95.4 | 60.1
EPHB6 (EPH receptor B6) | 2 | 0.635 | 28.1 | 43.6
EPHB6 (EPH receptor B6) | 3 | -0.068 | 27.8 | 26.5
EPHB6 (EPH receptor B6) | 4 | -0.0467 | 54.5 | 52.8
MAP3K5 (mitogen-activated protein kinase kinase kinase 5) | 1 | 0.41 | 69.5 | 92.3
MAP3K5 (mitogen-activated protein kinase kinase kinase 5) | 2 | -0.137 | 110 | 100
MAP3K5 (mitogen-activated protein kinase kinase kinase 5) | 3 | -0.354 | 63.2 | 49.4
MAP3K5 (mitogen-activated protein kinase kinase kinase 5) | 4 | 0.34 | 62.3 | 78.8
PAK1 (p21 (RAC1) activated kinase 1) | 1 | 0.638 | 68.2 | 106
PAK1 (p21 (RAC1) activated kinase 1) | 2 | 0.0838 | 96.7 | 103
PAK1 (p21 (RAC1) activated kinase 1) | 3 | -0.0901 | 111 | 104
PAK1 (p21 (RAC1) activated kinase 1) | 4 | -0.144 | 91.5 | 82.8

4 entries from above in another layout:
PTGR3 (prostaglandin reductase 3) #2
- log2 vehicle/camptothecin viability: -0.377
- viability with camptothecin (% of control): 41.9
- viability without drug (% of control): 32.2

PTGR3 (prostaglandin reductase 3) #3
- log2 vehicle/camptothecin viability: 0.265
- viability with camptothecin (% of control): 57.7
- viability without drug (% of control): 69.4

PTGR3 (prostaglandin reductase 3) #4
- log2 vehicle/camptothecin viability: -0.00502
- viability with camptothecin (% of control): 54.6
- viability without drug (% of control): 54.4

RNF32 (ring finger protein 32) #1
- log2 vehicle/camptothecin viability: -0.198
- viability with camptothecin (% of control): 103
- viability without drug (% of control): 89.7

The list goes on.
gene | siRNA no. | log2 vehicle/camptothecin viability | viability with camptothecin (% of control) | viability without drug (% of control)
TSPAN13 (tetraspanin 13) | 1 | -0.11 | 62.7 | 58.1
TSPAN13 (tetraspanin 13) | 2 | -0.137 | 73.9 | 67.2
TSPAN13 (tetraspanin 13) | 3 | -0.394 | 35.3 | 26.9
TSPAN13 (tetraspanin 13) | 4 | 0.204 | 77.8 | 89.6
CELA2B (chymotrypsin like elastase 2B) | 1 | 1.26 | 13.6 | 32.7
CELA2B (chymotrypsin like elastase 2B) | 2 | -0.255 | 132 | 111
CELA2B (chymotrypsin like elastase 2B) | 3 | -0.349 | 80.3 | 63.1
CELA2B (chymotrypsin like elastase 2B) | 4 | 0.0158 | 14 | 14.2
EPHA5 (EPH receptor A5) | 1 | -0.185 | 131 | 115
EPHA5 (EPH receptor A5) | 2 | -0.222 | 48.4 | 41.5
EPHA5 (EPH receptor A5) | 3 | -0.1 | 24.2 | 22.6
EPHA5 (EPH receptor A5) | 4 | -0.54 | 32.5 | 22.3
GLIPR1L1 (GLIPR1 like 1) | 1 | 0.0852 | 114 | 121
GLIPR1L1 (GLIPR1 like 1) | 2 | -0.156 | 50 | 44.9
GLIPR1L1 (GLIPR1 like 1) | 3 | 0.279 | 46.4 | 56.3
GLIPR1L1 (GLIPR1 like 1) | 4 | 0.354 | 37.6 | 48.1
